Results deposited as PubChem BioAssay AID743121 (NCATS, 2013)

Purpose: 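Partners whose loss is lethal together with topoisomerase I blockade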 (primary screen)
System: MDA-MB-231 cells, a human breast cancer line
Knock-down reagent: single siRNA against human genes, 20 nM siRNA (0.8 pmol per well)
Duration: 120 h (drug added 48 h after transfection, read 72 h later)
Challenge: camptothecin 20 nM (about EC30) for 72 h; vehicle 0.1% DMSO in parallel plates
Read-out: 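Cell viability by ATP luminescence (CellTiter-Glo) as % of non-targeting siRNA wells, and the log2 ratio of viability without drug over viability with camptothecin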
Reading the numbers: log2 vehicle/camptothecin viability: higher = stronger sensitisation to camptothecin; viability with camptothecin and viability without drug: higher = more viable cells
Rule for the call: 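Each gene scored by redundant siRNA activity (RSA) over its individual siRNA ratios; a gene is called active at p < 0.001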
In all, the deposit lists about 26,000 reagents; this is an unselected part. Over the whole deposit, 167 (0.63%) were called active. 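Calls are per gene from RSA p-values that are not deposited; an individual active-marked siRNA can sensitise only weakly.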 A number with no mark means an inactive call. The numbers tell different reagents against one gene apart.

target gene	reagent no.	log2 vehicle/camptothecin viability	viability with camptothecin (% of control)	viability without drug (% of control)
GNAI3 (GeneID 2773)	1	0.213	90.3	105
GNAI3 (GeneID 2773)	2	0.204	58.8	67.7
GNAI3 (GeneID 2773)	3	-0.195	115	101
CA11 (GeneID 770)	1	-0.53	82.9	57.5
CA11 (GeneID 770)	2	0.0942	66.2	70.6
CA11 (GeneID 770)	3	-0.381	40.2	30.9
AKAP8 (GeneID 10270)	1	-0.0983	78.7	73.5
AKAP8 (GeneID 10270)	2	-0.445	72.3	53.1
AKAP8 (GeneID 10270)	3	0.849	42.9	77.2
AKAP8 (GeneID 10270)	4	-0.503	73.2	51.6
STX4 (GeneID 6810)	1	-0.344	71.4	56.3
STX4 (GeneID 6810)	2	0.0623	36.5	38.2
STX4 (GeneID 6810)	3	-0.0815	105	99.3
STX4 (GeneID 6810)	4	0.798	30.9	53.7
NOS3 (GeneID 4846)	1	0.187	47.3	53.9
NOS3 (GeneID 4846)	2	0.317	25.1	31.2
NOS3 (GeneID 4846)	3	-0.259	84.1	70.3
NOS3 (GeneID 4846)	4	0.0742	63	66.3
DNAJC6 (GeneID 9829)	1	-0.212	55.2	47.7
DNAJC6 (GeneID 9829)	2	0.107	54.7	58.9
DNAJC6 (GeneID 9829)	3	0.082	35.8	37.9
DNAJC6 (GeneID 9829)	4	0.00424	110	110
PDE6A (GeneID 5145)	1	-0.298	67.8	55.2
PDE6A (GeneID 5145)	2	-0.091	99.5	93.4
PDE6A (GeneID 5145)	3	-0.311	120	97
PDE6A (GeneID 5145)	4	-0.199	46.5	40.5
NR2C1 (GeneID 7181)	1	-0.0464	81.1	78.6
NR2C1 (GeneID 7181)	2	-0.934	67.7	35.4
NR2C1 (GeneID 7181)	3	-0.239	67.7	57.4
NR2C1 (GeneID 7181)	4	-0.323	125	99.8
BMP6 (GeneID 654)	1	-0.232	109	92.9
BMP6 (GeneID 654)	2	-0.32	64.3	51.5
BMP6 (GeneID 654)	3	0.0944	71.2	76.1
PTPRN2 (GeneID 5799)	1	-0.0324	102	99.3
PTPRN2 (GeneID 5799)	2	-0.68	58.7	36.6
PTPRN2 (GeneID 5799)	3	0.0143	30.3	30.6
PTPRN2 (GeneID 5799)	4	-0.111	90	83.3
GAS2 (GeneID 2620)	1	-0.12	103	94.3
GAS2 (GeneID 2620)	2	-0.153	69.1	62.2
GAS2 (GeneID 2620)	3	-0.279	95.6	78.8
GAS2 (GeneID 2620)	4	-0.0236	83.4	82.1
SESTD1 (GeneID 91404)	1	-0.0321	86.3	84.4
SESTD1 (GeneID 91404)	2	-0.15	99.2	89.4
SESTD1 (GeneID 91404)	3	-0.624	57.4	37.3

An excerpt from above, showing only “log2 vehicle/camptothecin viability”.
NOS3 (GeneID 4846) #1	0.187
NOS3 (GeneID 4846) #2	0.317
NOS3 (GeneID 4846) #3	-0.259
NOS3 (GeneID 4846) #4	0.0742
DNAJC6 (GeneID 9829) #1	-0.212
DNAJC6 (GeneID 9829) #2	0.107
DNAJC6 (GeneID 9829) #3	0.082
DNAJC6 (GeneID 9829) #4	0.00424
PDE6A (GeneID 5145) #1	-0.298
PDE6A (GeneID 5145) #2	-0.091

Further records follow.
target gene	reagent no.	log2 vehicle/camptothecin viability	viability with camptothecin (% of control)	viability without drug (% of control)
TNFRSF25 (GeneID 8718)	1	-0.045	109	106
TNFRSF25 (GeneID 8718)	2	-0.273	107	88.9
TNFRSF25 (GeneID 8718)	3	-0.191	82.7	72.4
TNFRSF25 (GeneID 8718)	4	-0.116	59.2	54.7
TNFRSF25 (GeneID 8718)	5	-0.0951	75.1	70.3
TNFRSF25 (GeneID 8718)	6	-0.311	36.5	29.5
BAG4 (GeneID 9530)	1	-0.116	105	97.2
BAG4 (GeneID 9530)	2	-0.113	55.5	51.4
BAG4 (GeneID 9530)	3	-0.318	52.1	41.8
BAG4 (GeneID 9530)	4	-0.364	91.3	70.9
STK38 (GeneID 11329)	1	0.128	83.2	90.9
STK38 (GeneID 11329)	2	-0.419	83	62.1
STK38 (GeneID 11329)	3	-0.309	71.8	58
STK38 (GeneID 11329)	4	0.0855	92.8	98.5
CUBN (GeneID 8029)	1	-0.177	101	89.5
CUBN (GeneID 8029)	2	-0.3	70.1	56.9
CUBN (GeneID 8029)	3	1.37	12.3	31.8
CUBN (GeneID 8029)	4	0.371	25	32.4
LTBR (GeneID 4055)	1	0.0508	65.2	67.5
LTBR (GeneID 4055)	2	-0.112	96.7	89.5
LTBR (GeneID 4055)	3	-0.503	77.9	55
LTBR (GeneID 4055)	4	-0.279	52.7	43.5
ANLN (GeneID 54443)	1	-0.164	126	113
ANLN (GeneID 54443)	2	-0.367	84.2	65.3
ANLN (GeneID 54443)	3	-0.299	50.9	41.4
ANLN (GeneID 54443)	4	-0.368	84.5	65.5
